Measured values taken from article PMC9925808.
No constants are given. Whether binding was seen depends on the method and setting. In cells and extracts the contact can be indirect. Some binding calls cover weakened binding; strength is not graded here. For some assays here: Tags and fused reporters may be left off the sequences shown.

T1: checkpoint kinase-1 (Chk1) (human (endogenous in MCF-7)) (UniProt O14757)
T1 sequence: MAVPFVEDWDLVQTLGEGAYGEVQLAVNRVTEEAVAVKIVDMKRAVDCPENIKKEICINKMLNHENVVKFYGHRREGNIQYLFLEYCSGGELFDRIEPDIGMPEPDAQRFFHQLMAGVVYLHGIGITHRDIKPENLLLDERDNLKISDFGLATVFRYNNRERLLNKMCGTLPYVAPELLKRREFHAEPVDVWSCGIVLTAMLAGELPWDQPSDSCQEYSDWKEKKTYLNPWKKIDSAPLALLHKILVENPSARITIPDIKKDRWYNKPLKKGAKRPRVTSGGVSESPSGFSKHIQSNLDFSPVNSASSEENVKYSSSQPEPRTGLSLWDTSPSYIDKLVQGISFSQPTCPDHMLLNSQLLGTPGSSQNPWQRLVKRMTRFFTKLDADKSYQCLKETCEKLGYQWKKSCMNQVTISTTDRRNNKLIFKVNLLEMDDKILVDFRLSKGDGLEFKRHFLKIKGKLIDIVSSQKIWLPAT

T2: HA epitope-tagged Chk1 (UniProt O14757)
T2 sequence: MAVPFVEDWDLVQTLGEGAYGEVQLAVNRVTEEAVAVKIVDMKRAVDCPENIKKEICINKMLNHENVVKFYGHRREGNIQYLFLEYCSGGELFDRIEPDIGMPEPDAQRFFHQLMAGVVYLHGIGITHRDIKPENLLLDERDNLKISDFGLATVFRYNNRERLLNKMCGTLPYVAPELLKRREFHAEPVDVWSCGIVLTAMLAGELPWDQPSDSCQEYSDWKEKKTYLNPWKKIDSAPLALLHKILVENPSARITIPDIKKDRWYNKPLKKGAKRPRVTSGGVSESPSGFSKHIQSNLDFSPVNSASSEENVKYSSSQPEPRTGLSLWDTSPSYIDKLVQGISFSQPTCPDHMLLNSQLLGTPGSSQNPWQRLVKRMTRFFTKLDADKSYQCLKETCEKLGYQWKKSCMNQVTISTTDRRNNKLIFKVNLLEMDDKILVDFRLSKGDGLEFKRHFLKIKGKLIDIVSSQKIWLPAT


Assays:
[1] = target: T1, checkpoint kinase-1 (Chk1) (human (endogenous in MCF-7)); experiment: co-IP; reciprocal co-immunoprecipitation of endogenous proteins from MCF-7 lysate; NETN buffer (20 mM Tris-HCl pH 8.0, 100 mM NaCl, 0.5% Nonidet P-40, 1 mM EDTA) with benzonase; 4 °C; Western blotting
HA epitope-tagged Chk1 = target: T2, HA epitope-tagged Chk1; experiment: co-IP; HA-Chk1 and Myc-PPP2R2A (WT or mutant) co-transfected into 293T cells, immunoprecipitation, detection with anti-HA and anti-Myc antibodies; NETN buffer, 4 °C

| binding [1] | binding (HA epitope-tagged Chk1) | Binder |
| --- | --- | --- |
| binds | – | PPP2R2A (the B-regulatory subunit of Phosphatase PP2A) (protein, UniProt P63151 1-447) MAGAGGGNDIQWCFSQVKGAVDDDVAEADIISTVEFNHSGELLATGDKGGRVVIFQQEQENKIQSHSRGEYNVYSTFQSHEPEFDYLKSLEIEEKINKIRWLPQKNAAQFLLSTNDKTIKLWKISERDKRPEGYNLKEEDGRYRDPTTVTTLRVPVFRPMDLMVEASPRRIFANAHTYHINSISINSDYETYLSADDLRINLWHLEITDRSFNIVDIKPANMEELTEVITAAEFHPNSCNTFVYSSSKGTIRLCDMRASALCDRHSKLFEEPEDPSNRSFFSEIISSISDVKFSHSGRYMMTRDYLSVKIWDLNMENRPVETYQVHEYLRSKLCSLYENDCIFDKFECCWNGSDSVVMTGSYNNFFRMFDRNTKRDITLEASRENNKPRTVLKPRKVCASGKRKKDEISVDSLDFNKKILHTAWHPKENIIAVATTNNLYIFQDKVN |
| – | binds | Myc-PPP2R2A wild-type (protein, UniProt P63151 1-447) MAGAGGGNDIQWCFSQVKGAVDDDVAEADIISTVEFNHSGELLATGDKGGRVVIFQQEQENKIQSHSRGEYNVYSTFQSHEPEFDYLKSLEIEEKINKIRWLPQKNAAQFLLSTNDKTIKLWKISERDKRPEGYNLKEEDGRYRDPTTVTTLRVPVFRPMDLMVEASPRRIFANAHTYHINSISINSDYETYLSADDLRINLWHLEITDRSFNIVDIKPANMEELTEVITAAEFHPNSCNTFVYSSSKGTIRLCDMRASALCDRHSKLFEEPEDPSNRSFFSEIISSISDVKFSHSGRYMMTRDYLSVKIWDLNMENRPVETYQVHEYLRSKLCSLYENDCIFDKFECCWNGSDSVVMTGSYNNFFRMFDRNTKRDITLEASRENNKPRTVLKPRKVCASGKRKKDEISVDSLDFNKKILHTAWHPKENIIAVATTNNLYIFQDKVN |
